Measurements published in the supplement of paper PMC5407854, “Inhibitor of ppGalNAc-T3-mediated O-glycosylation blocks cancer cell invasiveness and lowers FGF23 levels” (eLife, 2017).
± gives the standard deviation of the averaged measurements. In all, about 1,700 compounds were measured (“T3 sensor activation Q score (MG/GFP ratio z-score vs DMSO controls)”: median about 0.25, highest 2% from about 1.9 on). The list shows a part of the results.

system: ppGalNAc-T3 sensor; experiment: T3 sensor activation Q score (MG/GFP ratio z-score vs DMSO controls) (SD units); higher = more sensor activation (inhibition of ppGalNAc-T3 glycosylation); conditions: HEK293 sensor cells; 10 µM; 6 h
Experimental: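 Cells were treated with compound at 10 uM for 6 h, then MG/GFP ratio was read by flow cytometry (10,000 cells per well, duplicate wells). Q = (R - R_neg)/SD_neg relative to DMSO vehicle controls; the signal rises when the glycosyltransferase is inhibited.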

Compound	T3 sensor activation Q score
c1ccc2cc(OCCOCCOc3ccc4ccccc4c3)ccc2c1	1.35
Nc1ccccc1-c1nc2ccncc2[nH]1	-0.05
Cc1cc(=O)c2c(=O)[nH][nH]c2[nH]1	-1.35
CCOC(=O)c1c(O)cc(C)[nH]c1=O	-0.85
O=C(O)c1cc2ccccc2c2cc(Br)ccc12	0.4
O=C(Nc1ccccc1)Oc1ccc[nH]c1=O	1
CN(Cc1cnc2nc(N)nc(N)c2n1)c1ccc(C(=O)N[C@@H](CCC(=O)O)C(=O)O)cc1	-1.25
CC(=O)CC[N+](C)(C)C	0.75
O=C(O)c1ccc(N2CCCCC2)cc1O	0.05
Oc1ccc(-c2nc3ccccc3s2)c(O)c1	1
c1ccc(-c2cn3ccccc3n2)cc1	-0.4
CC(=O)Nc1ccc(S(=O)(=O)N/N=c2/sc3ccccc3n2C)cc1N	1.55
C(COC1CC2CC1C1C2CC2OC21)OC1CC2CC1C1C2CC2OC21 (centres undefined)	1.15
[O-][n+]1nc2ccccc2c2ccccc21	-1.15
C=CCOc1ccc(S(C)(=O)=O)cc1	1.85
CC1=CC(C)(C(Cl)(Cl)Cl)C(C)=C/C1=N/O (centres undefined)	0.15
CCCCCCCCC(=O)c1c(OC)oc(C=O)cc1=O	-0.4
CC(=O)NCCCOc1ccc([N+](=O)[O-])cc1Cl	-0.6
Cc1nc2ccccc2nc1NS(=O)(=O)c1ccc(N)cc1	-0.1
Cc1ccc(N=Nc2ccc(N)cc2C)c(S(N)(=O)=O)c1	0.85
O=C(Nc1cccc([N+](=O)[O-])c1)c1cccc(C(=O)Nc2cccc([N+](=O)[O-])c2)c1	-0.25
O=C(Nc1cccc2ccccc12)c1cc2c(cc1Br)OCO2	0.05

Compound	T3 sensor activation Q score
Cn1ncc2c(Nc3ccccc3Cl)nc(Cl)nc21	0.95
OCc1nc2nc(Cl)c(Cl)nc2[nH]1	-1.15
CCC1(CC)C(=O)NC(=S)N=C1N	0.85
CC(C)NC(=O)Nc1cccc(Cl)c1	0.3
Cc1oc2c(c(C)nn2-c2ccccc2)c(=O)c1Cl	1.1
O=c1cccc2cc(O)c(O)c(O)c2c1O	0.6
CC(=O)Oc1c(C)c(OC(C)=O)c2c(c1C(C)=O)OC1CC(=O)C(C(C)=O)=C(O)C21C (centres undefined)	-1.15
O=C1C2C3C=CC(O3)C2C(=O)N1Nc1ccccc1 (centres undefined)	0.35
Cc1nc(Nc2ncc(C(=O)Nc3c(C)cccc3Cl)s2)cc(N2CCN(CCO)CC2)n1	0.2
Cc1c(Cl)cccc1Nc1ncccc1C(=O)OCC(O)CO (centres undefined)	0.45
O=C(Nc1cccc(Cl)c1)Nn1cnnc1	0
CCOc1ccc(NC(=O)C2CCCN(C)C2)cc1 (centres undefined)	0.6
CCOC(=O)C(=O)Cc1nc2ccccc2s1	0.8
FC(F)(F)c1cccc(-c2nc3nc(Cl)c(Cl)nc3[nH]2)c1	-3.45
COc1cc([C@@H]2c3cc4c(cc3[C@@H](O[C@@H]3O[C@@H]5CO[C@@H](c6cccs6)O[C@H]5[C@H](O)[C@H]3O)[C@H]3COC(=O)[C@H]23)OCO4)cc(OC)c1O	0.475 ± 0.39
Cc1ccc(C2C=CC(C#N)=CN2Cc2ccccc2)cc1 (centres undefined)	0.65
COC(=O)C1CC(O)C(O)C(O)C1 (centres undefined)	-0.5
O=C(Nc1ccccc1)Nc1ccccn1	-1.35
NC(=O)c1ccc(Cl)c2ccccc12	0.45
Nc1ccn([C@@H]2O[C@H](CO)[C@@H](O)[C@@H]2O)c(=O)n1	0.95
c1ccc(Sc2ncnc3ccccc23)cc1	-0.65
CN(C)C(=O)c1cccc(COc2ccc(N3C(N)=NC(N)=NC3(C)C)cc2Cl)c1	-0.1

Compounds shown so far with a COOH group:
Compound	T3 sensor activation Q score
O=C(O)c1cc2ccccc2c2cc(Br)ccc12	0.4
CN(Cc1cnc2nc(N)nc(N)c2n1)c1ccc(C(=O)N[C@@H](CCC(=O)O)C(=O)O)cc1	-1.25
O=C(O)c1ccc(N2CCCCC2)cc1O	0.05
